Data reported in PubChem BioAssay AID1671190 (National Center for Advancing Translational Sciences (NCATS), 2021).
“And” between values parts separate entries of the source, which are not always exact repeats. Equal entries are not always repeated. In all, about 580,000 compounds went through this assay and about 6,100 (1.1%) were called active. Inconclusive results, whose numbers are uncertain, are shown with a selection of clear calls. Calls follow the shape of the dose curve; as a rule, active = well fitted inhibition curve with a large enough effect; inconclusive = small, poorly fitted or top-dose-only effect, or another doubt; inactive = no such curve, though single readings can be large or run the other way. A potency beside an inconclusive call is a rough fit, not a confirmed value.
% is scaled to controls: 0 for no effect and ±100 for the full control effect; potency is read from the fitted curve at half-maximal effect.

Chains of the proteins cited; added tags and fusions are not shown. Lines headed by an entry give the natural chain unless they say otherwise; changes in a name come on top.
UniProt P18054: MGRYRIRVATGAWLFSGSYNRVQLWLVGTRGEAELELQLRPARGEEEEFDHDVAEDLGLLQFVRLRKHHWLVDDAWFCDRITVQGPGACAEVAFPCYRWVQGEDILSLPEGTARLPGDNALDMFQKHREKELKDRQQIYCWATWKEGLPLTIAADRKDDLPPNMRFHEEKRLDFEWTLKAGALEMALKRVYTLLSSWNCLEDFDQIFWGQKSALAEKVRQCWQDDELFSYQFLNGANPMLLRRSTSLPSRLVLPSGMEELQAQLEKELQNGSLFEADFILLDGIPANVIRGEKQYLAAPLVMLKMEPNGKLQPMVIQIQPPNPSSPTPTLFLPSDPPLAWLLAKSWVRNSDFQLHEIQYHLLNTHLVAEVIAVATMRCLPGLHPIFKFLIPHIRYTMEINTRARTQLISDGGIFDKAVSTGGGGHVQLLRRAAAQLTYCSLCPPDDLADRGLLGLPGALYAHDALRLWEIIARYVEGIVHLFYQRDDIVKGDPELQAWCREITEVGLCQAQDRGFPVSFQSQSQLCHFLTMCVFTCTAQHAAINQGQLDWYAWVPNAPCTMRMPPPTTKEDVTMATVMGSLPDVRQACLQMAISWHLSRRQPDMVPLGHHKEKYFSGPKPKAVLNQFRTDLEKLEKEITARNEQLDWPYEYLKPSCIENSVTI

The compounds below were run against Polyunsaturated fatty acid lipoxygenase ALOX12 (Homo sapiens) (UniProt P18054) (assay: Primary qHTS assay for inhibitors of human arachidonate 12S-lipoxygenase (ALOX12): Round 2). Details: purified 12hLO, xylenol orange hydroperoxide absorbance; activity change, negative = inhibition: at 108 µM (top of the series) unless noted.
Method in brief: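 Purified human 12hLO at 150 nM in 25 mM Hepes, 0.01% Triton X-100, pH 7.0, preincubated 15 min at room temperature with compound. Reaction started with 40 uM arachidonic acid, 30 min at room temperature. Hydroperoxide measured by Fe-xylenol orange, 573/405 nm absorbance ratio.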
With `CCC1CCCCN1CCCNC(=O)CN1C(=O)CSc2ccc(S(=O)(=O)N3CCC(C)CC3)cc21` (stereo unspecified) the Potency was “inactive”.
In the case of `Cc1cc2c(c3oc(=O)c4ccccc4c13)CN(Cc1ccc(F)cc1)CO2`, the Potency is reported as inconclusive: 44.7 µM [inhibitor, partial curve, poor fit].
For `COC(=O)c1cc(Br)c(=O)n(Cc2ccco2)c1`, the Potency was inconclusive: 141 µM [inhibitor, single point].
For `O=C(NC[C@@H]1CCCN1)C1CCN(c2nc(-c3ccccc3)nc3c2CCC3)CC1`, the Potency was inconclusive: 11.2 µM [inhibitor, partial curve].
With `Cc1nn2c(c1-c1ccnn1C(C)C)N(C(=O)c1ccc(Oc3ccccc3)cc1)CCC2` the “activity change, negative = inhibition” value was inactive: 51.4%.
In the case of `N#Cc1c(-c2ccc(F)cc2)cc(-c2cccnc2)nc1N`, the “activity change, negative = inhibition” value is reported as inactive: -10.5%.
For `C#CCN[C@@H]1CCc2ccccc21`, the Potency was inconclusive: 8.09 µM [inhibitor, partial curve, poor fit] and inconclusive: 2.73 µM [inhibitor, full curve].
For `CCS(=O)(=O)N(C)CCCNC(=O)c1cn(C)c2ccccc12`, the “activity change, negative = inhibition” value was inactive: 13.5%.
With `O=C(Nc1cc(C(F)(F)F)ccc1Cl)C1(F)C(F)(F)C(F)(F)C(F)(F)C(F)(F)C1(F)F` the Potency was inconclusive: 25.1 µM [inhibitor, partial curve, poor fit].
For `O=C(Nc1cccc(Cl)c1)Nc1ccccc1OCc1cc(=O)n2ccccc2n1`, the Potency was inconclusive: 112 µM [inhibitor, partial curve, poor fit].
With `CCOC(=O)C1=C(C)N=C2SCCC(=O)N2[C@@H]1c1cccs1` the “activity change, negative = inhibition” value was inactive: 86.7%.
In the case of `CCC[n+]1cn(/C(C(=S)Nc2cccc(Cl)c2C)=C(/[O-])c2ccc(OC)c(OC)c2)c2ccccc21`, the “activity change, negative = inhibition” value is reported as inactive: -19.6%.
In the case of `CCOc1cccc2c1Oc1nc(-c3cccc(OC(C)C)c3)[nH]c(=O)c1C2`, the “activity change, negative = inhibition” value is reported as inactive: 3.49%.
For `Cc1cc(Cl)cc(Cl)c1CNCC1(O)CCCNC1` (stereo unspecified), the “activity change, negative = inhibition” value was inactive: 55.5%.
`S=C(NCc1ccc(Cl)cc1)NCc1ccco1` was tested, and the Potency was inconclusive: 44.7 µM [inhibitor, partial curve, poor fit].
With `O=C(NC[C@H]1O[C@@H](CO)[C@@H](O)[C@H]1N1CCOCC1)c1ccco1` the Potency was inconclusive: 20 µM [inhibitor, full curve, poor fit].
`Cc1cn2nc(C(=O)N3CCC(NC(=O)c4ccc(C)s4)CC3)cc2c(=O)[nH]1` was tested, and the “activity change, negative = inhibition” value was inactive: 5.4%.
In the case of `Cc1ccc(-c2csc(N)n2)s1`, the Potency is reported as inconclusive: 6.31 µM [inhibitor, full curve, poor fit].
`O=C(NC(=S)N1CCCCC1c1cccnc1)c1ccc(Br)cc1` (stereo unspecified) was tested, and the Potency was inconclusive: 50.1 µM [inhibitor, partial curve, poor fit].
With `CC1(O)CCCN(c2ncc(C(C)(C)C(=O)O)c(N3CCOCC3)n2)C1` (stereo unspecified) the Potency was inconclusive: 89.1 µM [inhibitor, partial curve, poor fit].
For `O=C(O)C1=C(C(=O)O)C2CCC1C2`, the Potency was inconclusive: 39.8 µM [inhibitor, partial curve, poor fit].
For `O=C(NC1CCN(S(=O)(=O)c2ccccc2)CC1)c1ccc(F)cc1`, the Potency was inconclusive: 2.82 µM [inhibitor, full curve, poor fit].
For `O=C(O)c1cccc(Nc2ccc([N+](=O)[O-])cn2)c1`, the Potency was inconclusive: 100 µM [inhibitor, single point].
With `CC(/C=N/n1c(-c2cc(C)[nH]n2)n[nH]c1=S)=C\c1ccco1` the Potency was inconclusive: 70.8 µM [inhibitor, partial curve, poor fit].
With `Cc1cc2c(c(=O)o1)C(c1cccs1)C(C#N)=C(N)O2` (stereo unspecified) the Potency was inconclusive: 56.2 µM [inhibitor, partial curve, poor fit] and inconclusive: 158 µM [inhibitor, partial curve, poor fit].
`Cc1ccc(S(=O)(=O)n2nc(-c3ccco3)nc2SCc2ccccc2)cc1` was tested, and the Potency was inconclusive: 7.08 µM [inhibitor, full curve, poor fit].
`CC1CCN(S(=O)(=O)c2ccc3ncn(CC(=O)N(C)Cc4ccccc4)c(=O)c3c2)CC1` was tested, and the Potency was inconclusive: 28.2 µM [inhibitor, partial curve, poor fit].
`Nc1c(-c2ccc(F)c(F)c2)nc2ncccn12` was tested, and the Potency was inconclusive: 126 µM [inhibitor, single point].
For `O=C(NCc1ccc(F)cc1)N1CCCC(Cn2cnc3cccnc32)C1` (stereo unspecified), the “activity change, negative = inhibition” value was inactive: 38.3%.
In the case of `O=C1NN(c2ccccc2)C(=O)/C1=C\c1coc2ccc(O)cc2c1=O`, the Potency is reported as inconclusive: 44.7 µM [inhibitor, partial curve, poor fit].
`CN(C)CC(=O)N1Cc2ccccc2CC2(CCCCN2Cc2ccccc2)C1` (stereo unspecified) was tested, and the activity change, negative = inhibition was inactive: 1.58% [at 6.33 µM].
For `O=C1CN(C(=O)c2ccccc2F)C(c2ccccc2)c2cc(F)ccc2N1` (stereo unspecified), the Potency was inconclusive: 112 µM [inhibitor, partial curve, poor fit].
For `S=C(NCc1ccccc1)NCc1ccc(CNC(=S)NCc2ccccc2)cc1`, the Potency was active: 25.1 µM.
In the case of `O=C(CCC(=O)N1CCOCC1)Nc1nnc(C2CCCCC2)s1`, the Potency is reported as inconclusive: 70.8 µM [inhibitor, single point].
`O=C(NC[C@@H]1CC[C@@H](Cc2ccc(-c3ccccc3)cc2)O1)Nc1ccc(Br)cc1` was tested, and the Potency was inconclusive: 141 µM [inhibitor, single point].
With `CNc1ccc(Br)cc(C(=O)/C=C/c2cc(OC)ccc2OC)c1=O` the Potency was inconclusive: 7.94 µM [inhibitor, partial curve, poor fit].
For `CCS(=O)(=O)N1Cc2ccccc2CC1C(=O)Nc1cccc(OC)c1` (stereo unspecified), the Potency was inconclusive: 112 µM [inhibitor, single point].
In the case of `O=C(NCCc1ccccn1)c1cc(-c2ccc(Cl)c(Cl)c2Cl)nc2ccccc12`, the “activity change, negative = inhibition” value is reported as inactive: -17.5%.
In the case of `Cc1cc(C(=O)NCC(c2cccs2)N2CCOCC2)ccc1[N+](=O)[O-]` (stereo unspecified), the Potency is reported as inconclusive: 0.251 µM [inhibitor, full curve, poor fit].
For `CCOc1ccc(S(=O)(=O)N2CCN(C(=O)c3cccn3C)CC2)cc1`, the “activity change, negative = inhibition” value was inactive: 17.1%.
`CCNS(=O)(=O)c1ccc(C)c(C(=O)NCc2coc(-c3cccs3)n2)c1` was tested, and the “activity change, negative = inhibition” value was inactive: -7.57%.
